Assay results published in PubChem BioAssay AID743255 (National Center for Advancing Translational Sciences (NCATS), 2014).
Hit rate of the full screen: of about 390,000 compounds, about 910 (0.23%) were called active. Inconclusive results, whose numbers are uncertain, are shown with a selection of clear calls. Calls follow the shape of the dose curve; as a rule, active = well fitted inhibition curve with a large enough effect; inconclusive = small, poorly fitted or top-dose-only effect; inactive = no such curve, though single readings can be large or run the other way. Potencies of inconclusive entries are doubtful fits and often do not repeat.

Chains of the proteins cited; added tags and fusions are not shown. Lines headed by an entry give the natural chain unless they say otherwise; changes in a name come on top.
UniProt O94782: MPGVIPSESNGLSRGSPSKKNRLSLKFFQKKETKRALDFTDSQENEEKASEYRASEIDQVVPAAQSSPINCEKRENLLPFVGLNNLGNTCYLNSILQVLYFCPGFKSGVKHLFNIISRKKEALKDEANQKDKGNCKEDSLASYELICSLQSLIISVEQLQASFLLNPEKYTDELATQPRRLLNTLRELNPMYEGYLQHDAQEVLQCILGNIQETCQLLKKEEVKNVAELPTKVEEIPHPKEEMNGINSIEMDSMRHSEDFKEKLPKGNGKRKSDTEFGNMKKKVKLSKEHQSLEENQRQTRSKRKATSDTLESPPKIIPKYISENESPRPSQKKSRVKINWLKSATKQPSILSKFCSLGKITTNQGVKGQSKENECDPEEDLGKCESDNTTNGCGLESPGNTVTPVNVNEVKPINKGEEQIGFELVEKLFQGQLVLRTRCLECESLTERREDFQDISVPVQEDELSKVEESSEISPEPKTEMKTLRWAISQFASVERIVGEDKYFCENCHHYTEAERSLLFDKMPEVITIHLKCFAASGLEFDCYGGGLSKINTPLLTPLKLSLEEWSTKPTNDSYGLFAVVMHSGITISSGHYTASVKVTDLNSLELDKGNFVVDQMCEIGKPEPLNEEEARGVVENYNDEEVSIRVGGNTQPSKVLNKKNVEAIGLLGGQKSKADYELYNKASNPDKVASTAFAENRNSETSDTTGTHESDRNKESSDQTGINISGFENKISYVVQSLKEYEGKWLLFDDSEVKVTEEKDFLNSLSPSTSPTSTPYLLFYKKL

These compounds were tested against Ubiquitin carboxyl-terminal hydrolase 1 (Homo sapiens) (UniProt O94782) (assay: Inhibitors of USP1/UAF1: Primary Screen). Conditions: recombinant USP1/UAF1, Ub-Rhodamine cleavage fluorescence; activity change, negative = inhibition: at 57.1 µM (top of the series).
Excerpt: Deubiquitinating enzymes (DUBs) are a class of enzymes that can cleave isopeptide bond formed between the C-terminal carboxylate of ubiquitin and a lysine side-chain amino group on the target protein. Among them, ubiquitin specific proteases (USPs) constitute the largest DUB family. Human USPs are emerging as promising targets for pharmacological intervention because of their connection to a number of human diseases, including prostate, colon and breast cancer (1, 2), pediatric acute lymphoblastic leukemia (3), and familial cylindromatosis (4). The advantage of inhibiting USPs lies in the potential specificity of therapeutic intervention that can lead to better efficacy and reduce nonspecific side effects. In a collaboration between the University of Delaware and the NIH Chemical Genomics Center, a high-throughput screen assay was developed to screen for USP1/UAF1 inhibitors. This miniaturized assay has a fluorescent read-out and is used to screen the NIH Molecular Libraries Small Molecule Repository (MLSMR) in order to identify a small molecule that inhibits USP1. NIH Chemical Genomics Center [NCGC] NIH Molecular Libraries Probe Centers Network [MLPCN] MLPCN Grant: DA030552 Assay Submitter (PI): Zhihao Zhuang, University of Delaware 1. Priolo, C., et al. (2006) The isopeptidase USP2a protects human prostate cancer from apoptosis. Cancer Res 66, 8625-8632 2. Popov, N., et al. (2007) The ubiquitin-specific protease USP28 is required for MYC stability. Nat Cell Biol 9, 765-774 3. De Pitta, C., et al. (2005) A leukemia-enriched cDNA microarray platform identifies new transcripts with relevance to the biology of pediatric acute lymphoblastic leukemia. Haematologica 90, 890-898 4. Kovalenko, A., et al. (2003) The tumour suppressor CYLD negatively regulates NF-kappaB signalling by deubiquitination. Nature 424, 801-805
3 microliters of reagents (buffer in columns 3 and 4 as negative control and 1nM USP1/UAF1 complex in columns 1, 2, and 5-48) are dispensed into Greiner black solid bottom 1536-well assay plates. Compounds are then transferred via Kalypsys pin tool equipped with 1536-pin array (10nl slotted pins, V&P Scientific, San Diego, CA). Following an incubation step of 15 min at room temperature, 1ul of Ub-Rho substrate (150nM final concentration) is added to initiate the reaction. The plates are immediately centrifuged at 1000 rpm for 15 seconds, and subsequently transferred to a ViewLux high-throughput CCD imager (PerkinElmer) wherein kinetic measurements of fluorescence are acquired using 480 nm excitation/540 nm emission filter set (6 reads every 60 seconds, see Table 1). All reagents are diluted in an assay buffer consisting of 50mM HEPES (pH 7.8), 0.5mM EDTA, 0.1 mg/ml BSA, 1mM TCEP, and 0.01% Tween-20.
% is scaled to controls: 0 for no effect and ±100 for the full control effect; potency is read from the fitted curve at half-maximal effect.
Also: nearly all actives have a fitted effect of over 60% in size.

Potency, inconclusive:
Cc1nn(-c2ccccc2)c2nc(N)c(C#N)c(-c3ccc(O)c(O)c3)c12 28.2 µM [inhibitor, partial curve], CCN(CC)CCOC(=O)c1ccc(NC(=O)c2nn(-c3ccc(C)cc3)c(=O)c3c2c2ccccc2n3C)cc1 5.62 µM [inhibitor, full curve, poor fit], Cc1cccc(-c2nc3cc(NC(=O)Cc4ccc(Cl)cc4)ccc3o2)c1 5.01 µM [inhibitor, partial curve], COCCN(CCOC)c1ncnc2c1cnn2-c1ccccc1 1.12 µM [inhibitor, full curve, poor fit], C=CCC1NS(=O)(=O)OC(CCc2ccccc2)C1O (configuration not stated) 44.7 µM [inhibitor, partial curve, poor fit], Cc1ccc(C(=O)O)cc1-c1ccc(/C=C2\SC(=O)N(CC(=O)Nc3ccccc3)C2=O)o1 35.5 µM [inhibitor, single point], COc1ccccc1NC(=O)c1sc2nc(Cc3ccccc3)cc(C(F)(F)F)c2c1N 31.6 µM [inhibitor, partial curve, poor fit], O=C1NN(c2ccc(Cl)c(Cl)c2)C(=O)/C1=C/c1ccc(-c2ccccc2C(=O)O)o1 50.1 µM [inhibitor, partial curve, poor fit], C#Cc1ccc([C@@H]2C=C(C(=O)NCc3ccccc3)O[C@H](OCCCCO)C2)cc1 50.1 µM [inhibitor, partial curve, poor fit], CN(C)c1ccc(/C=N/Nc2nncc3ccccc23)cc1 28.2 µM [inhibitor, partial curve], c1ccc2c(c1)Sc1cnccc1N2CC1CO1 (configuration not stated) 0.398 µM [inhibitor, full curve, poor fit], COc1ccc([C@@H]2CC=C(C(=O)O)CN2S(=O)(=O)c2ccc(C)cc2)cc1OC 70.8 µM [inhibitor, partial curve, poor fit], COc1ccc(NC(=O)c2c(NCc3ccc(C)o3)sc3c2CCC(C)C3)cc1 (configuration not stated) 35.5 µM [inhibitor, single point], COc1ccc2[nH]cc(S(=O)(=O)c3ccc(F)cc3)c(=O)c2c1 7.08 µM [inhibitor, single point], O=C(C(Cc1ccccc1)NS(=O)(=O)c1cccc2cccnc12)N1CCc2ccccc21 (configuration not stated) 2.24 µM [inhibitor, full curve], CCCCn1c(=N)c(S(=O)(=O)c2ccccc2)cc2c(=O)n3cccc(C)c3nc21 0.141 µM [inhibitor, full curve, poor fit], CCCCN(C(=O)NC(=O)Nc1cc(C)ccc1C)S(C)(=O)=O 0.631 µM [inhibitor, full curve, poor fit], CCOC(=O)N1CCN(Cc2nc3cc(NC(=O)CC)ccc3n2C)CC1 0.708 µM [inhibitor, full curve, poor fit], CC(C)Cn1cc(NC(=O)NCc2ccccc2)c2ccccc2c1=O 35.5 µM [inhibitor, partial curve, poor fit], CCNc1nc(Oc2c(Cl)cccc2Cl)cc(C(F)(F)F)n1 5.62 µM [inhibitor, full curve, poor fit], O=C(OCc1c(-c2ccccc2)ncc2ccccc12)c1ccc(Br)cc1 44.7 µM [inhibitor, partial curve], CCOc1ccc(C(=O)Nc2ccc(Cl)cn2)cc1Cl 6.31 µM [inhibitor, partial curve], COc1cccc(-c2ccc(NC(=O)C3CCCN(Cc4cnn(C)c4)C3)cc2)c1 (configuration not stated) 3.55 µM [inhibitor, full curve], Cc1ccc(OCC(=O)Nc2ccc(OCc3cc(=O)n4ccsc4n3)cc2)cc1 0.282 µM [inhibitor, full curve], CCOC(=O)N1CCN(c2nc(-c3cccs3)nc3ccccc23)CC1 44.7 µM [inhibitor, partial curve, poor fit], Cc1c(C#N)c(N)nc(Cl)c1C#N 7.08 µM [inhibitor, single point], O=C(NCc1ccc(Cl)cc1)c1ccc(NC(=O)N2CC3CCCN3c3ccccc32)cc1 (configuration not stated) 31.6 µM [inhibitor, single point], O=C(Nc1c(Cl)cccc1Cl)c1cccc2c1C(=O)N(C1CCCCC1)C2 0.282 µM [inhibitor, full curve, poor fit], O=C(COC(=O)c1ccc([N+](=O)[O-])o1)Nc1cccc(S(=O)(=O)N2CCCCC2)c1 5.01 µM [inhibitor, partial curve], CC(C)CCN1CCN(Cc2cccn2-c2ccc(Cl)cn2)CC1CCO (configuration not stated) 1.26 µM [inhibitor, full curve, poor fit], Cc1ccccc1OCCCn1c(CCNC(=O)C2CCCCC2)nc2ccccc21 7.94 µM [inhibitor, partial curve, poor fit], Nc1nc(N)nc(Cc2ccccc2O)n1 50.1 µM [inhibitor, partial curve], CSCCC1C(C#N)=C(N)Oc2n[nH]c(-c3cccs3)c21 (configuration not stated) 44.7 µM [inhibitor, partial curve], O=C(O)c1ccc(N/N=C/C=C/c2ccccc2[N+](=O)[O-])cc1 4.47 µM [inhibitor, partial curve], COCc1cc(S(=O)c2ccc(Cl)cc2)nc(C)n1 (configuration not stated) 7.94 µM [inhibitor, full curve, poor fit], COc1ccc(OC)c(CNC(=O)c2ccc(Sc3ccc(Cl)cc3)c(NC(C)=O)c2)c1 14.1 µM [inhibitor, partial curve], COc1ccc(Nc2nnc(SC(C)C(=O)NC3CC3)s2)cc1 (configuration not stated) 63.1 µM [inhibitor, partial curve, poor fit], COc1ccc(NC(=O)CCNS(=O)(=O)c2cc(Br)ccc2Br)cc1S(N)(=O)=O 5.01 µM [inhibitor, single point], CCc1ccc2nc(N3CCN(C(=O)c4ccccc4)CC3)sc2c1 0.316 µM [inhibitor, full curve, poor fit], Cc1nc(COC(=O)c2cc(O)c3ccccc3c2O)cs1 39.8 µM [inhibitor, partial curve, poor fit], CN(C)S(=O)(=O)c1ccc(S(=O)(=O)NCc2ccc3c(c2)OCO3)cc1 35.5 µM [inhibitor, single point], CC1=NOC(=O)/C1=C\c1ccc(-c2ccc(Cl)cc2Cl)o1 39.8 µM [inhibitor, partial curve], CSc1nc2ccc3nc(NC(=O)C4COc5ccccc5O4)sc3c2s1 (configuration not stated) 31.6 µM [inhibitor, partial curve], C[C@H](CO)N1C[C@H](C)[C@@H](CN(C)Cc2ccc(Oc3ccccc3)cc2)OCc2cnnn2CCCC1=O 50.1 µM [inhibitor, partial curve, poor fit]

Activity change, negative = inhibition, inactive:
NS(=O)(=O)Oc1ccccc1 -12.7%, CNC(=S)N/N=C/c1cc(C)ccc1C -4.77%, CCOC(=O)c1c(SC)n(-c2ccccc2)c(=S)n(-c2ccccc2)c1=O -26.8%, Cc1cc(N2CCC(C)CC2)nc(SCC(=O)c2ccccc2)n1 -14.2%, CCN(C(=O)Cn1nc2c3cc(F)ccc3n(Cc3cccc(C)c3)cc-2c1=O)c1cccc(C)c1 -18%, COc1ccc(C(CNC(=O)c2cc(F)c(F)c(F)c2F)N2CCOCC2)cc1 (configuration not stated) -1.35%, CCOP(=O)(OCC)/C(=N/OC(=O)c1ccccc1C)C(N)=O -1.96%, CSc1ccccc1NC(=O)C1=CC(c2ccc3c(c2)OCO3)=NS(=O)(=O)N1C -13.7%, Cc1ccc(Cl)cc1N1CCN(Cc2nnnn2Cc2ccco2)CC1 -12.2%, CCOc1ccccc1N(C)S(=O)(=O)c1ccc2c(c1)CC(C)N2C(=O)C1CC1 (configuration not stated) -16.4%, CC(C)(C)c1nc2c(s1)CCc1onc(-c3ccc(Cl)cc3)c1-2 -24.1%, CN1CCN(C(c2ccc(Cl)cc2Cl)c2sc3nc(-c4ccco4)nn3c2O)CC1 (configuration not stated) -27.6%, COc1ccc(-c2cn3cccnc3n2)cc1NC(=O)COc1ccccc1 -14.1%, Cc1c(CC(=O)N2CCCCC2)c(=O)oc2cc3occ(C(C)(C)C)c3cc12 9.91%, CCC(C(=O)OCC(=O)Nc1ccc(F)cc1)c1ccccc1 (configuration not stated) -22.2%, CCOC(=O)C1CCN(C(=O)Cn2c(-c3cccs3)cc3cc(Cl)ccc32)CC1 -22.5%, O=C(O)CCC(=O)N1CCN(S(=O)(=O)c2ccc3ccccc3c2)CC1 -3.88%, CC1CCCN(S(=O)(=O)c2ccc(NC(=O)Cn3nnc(-c4ccccc4F)n3)cc2)C1 (configuration not stated) -22.1%, O=C(CCNC(=O)C1CCN(S(=O)(=O)c2ccc(F)cc2)CC1)NCc1ccccn1 -3.12%, COc1ccc2[nH]c(=O)c(CN(CC3CCCO3)C(=O)Nc3ccc(F)cc3)cc2c1 (configuration not stated) -11.1%, CC(=O)Nc1ccccc1OCC(=O)NC(C)c1ccccc1 (configuration not stated) -7.11%, CCOC(=O)N1CCN(S(=O)(=O)c2ccc(C(=O)N(CCN(C)C)c3nc4ccc(Cl)cc4s3)cc2)CC1 -8.34%, Cc1nc([N+](=O)[O-])c(Br)n1CC(=O)c1ccc(Cl)cc1 -0.163%
